The target in assay [1] is IL-17-like receptor (on the BIAcore surface). As to the kind of experiment: BIAcore (SPR). On the technique in general: SPR reads the build-up and loss of mass on a sensor chip optically.
Assay [2] has the same target. The assay can be described thus: BIAcore (SPR), dialyzed HS50 fractions.

These are yes or no findings as the source states them, for the method shown. A result given as binding can be weak or reduced; the word gives no strength.

B1: IL-20 polypeptide expressed in CHO cells (conditioned culture supernatants of clones 10, 16 and 22; HS50 cation-exchange fractions; CHO cell IL-20 preparations) (ligand)
chain: RSPKSKRKGQGRPGPLAPGPHQVPLDLVSRMKPYARMEEYERNIEEMVAQLRNSSELAQRKCEVNLQLWMSNKRSLSPWGYSINHDPSRIPVDLPEARCLCLGCVNPFTMQEDRSMVSVPVFSQVPVRRRLCPPPPRTGPCRQRAVMETIAVGCTCIF
modifications: glycosylated; single N-glycosylation site at residue 75 (FIG. 1 numbering)
On to B1, for which the binding result in assay [1] and in assay [2] was “binds” each time.

(Values after US20030180892A1.)
